PMC11032391
These are yes or no findings as the source states them, for the method shown. Binding seen in cells or lysates may run through a third protein. Some results given as binding are weak or reduced against the parent protein; the word gives no strength. Tags and fused reporters may be left off the sequences shown.

Sequences of proteins named here, by UniProt entry; tags and fusion partners are left off.
UniProt P63208: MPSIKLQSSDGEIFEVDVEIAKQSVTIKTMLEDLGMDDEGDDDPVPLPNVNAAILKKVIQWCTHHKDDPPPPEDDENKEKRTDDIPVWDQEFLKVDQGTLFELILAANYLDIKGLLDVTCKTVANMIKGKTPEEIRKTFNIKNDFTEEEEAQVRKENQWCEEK

Target: T1, Flag-tagged wild-type FBXO32 (UniProt Q969P5)
T1 sequence: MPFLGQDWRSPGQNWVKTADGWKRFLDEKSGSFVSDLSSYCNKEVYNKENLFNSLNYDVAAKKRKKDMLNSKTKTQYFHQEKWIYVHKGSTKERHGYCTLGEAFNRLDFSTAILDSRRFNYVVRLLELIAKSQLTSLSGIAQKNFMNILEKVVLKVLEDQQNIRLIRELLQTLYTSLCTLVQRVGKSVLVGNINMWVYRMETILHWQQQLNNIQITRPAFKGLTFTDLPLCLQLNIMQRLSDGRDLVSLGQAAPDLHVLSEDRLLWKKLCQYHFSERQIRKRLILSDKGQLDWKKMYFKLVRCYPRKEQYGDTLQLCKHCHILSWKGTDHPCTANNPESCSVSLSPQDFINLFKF
Experiment: co-IP; exogenous: HEK293T cells transfected with the indicated plasmids (Myc-PTEN, Flag-FBXO32 wild type or deletion mutants), MG132 (10 uM, 6 h in Fig. 5C), RIPA lysate, antibody 2 h at room temperature, Protein A/G PLUS-Agarose overnight at 4 °C, immunoblot

Substance: SKP1 (from UniProt P63208 1-163)
- binding: binds
